Results as given in patent US20160075780A1 (NB HEALTH LABORATORY, published 2016).
No constants are given. Whether binding was seen depends on the method and setting. Some results given as binding are weak or reduced against the parent protein; the word gives no strength.

By UniProt entry, the sequences of proteins in these tests, tags left out. Where a name states a change or a piece, a line headed by the entry shows the natural chain unless it says otherwise.
UniProt P35408: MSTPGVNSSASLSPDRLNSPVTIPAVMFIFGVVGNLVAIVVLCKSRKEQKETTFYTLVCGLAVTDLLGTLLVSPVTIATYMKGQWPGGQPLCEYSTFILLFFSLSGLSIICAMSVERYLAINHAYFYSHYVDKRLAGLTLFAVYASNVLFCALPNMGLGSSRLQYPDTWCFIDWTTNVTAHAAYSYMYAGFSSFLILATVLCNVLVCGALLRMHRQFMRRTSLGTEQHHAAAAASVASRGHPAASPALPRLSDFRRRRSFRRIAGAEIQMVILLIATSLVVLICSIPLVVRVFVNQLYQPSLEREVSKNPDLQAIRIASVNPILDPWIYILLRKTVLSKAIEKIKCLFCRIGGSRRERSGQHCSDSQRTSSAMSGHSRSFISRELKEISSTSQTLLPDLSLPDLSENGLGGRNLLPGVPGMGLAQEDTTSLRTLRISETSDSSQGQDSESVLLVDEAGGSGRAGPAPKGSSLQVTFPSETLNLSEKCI

Molecular target: human EP4 with V5 and 6xHIS tags at the C-terminus, on the CHO cell line stably expressing human EP4 (human) (UniProt P35408)
Test: flow cytometry, 293FT culture supernatant on the CHO cell line stably expressing human EP4, PE-labeled anti-human IgG

B1: human chimeric antibody NBG016-mAb14 (antibody, V domains shown)
VH: EIQLQQPGPELVKPGASVKVSCKASGFPFSTYNIYWVIQSHGKRLEWIGYIDPYNGGTSYNQKFRGKATLTVDKSSSTAYMHLNRLTSEDSAVYYCARRWYTYDGDWFAYWGQGTLVTVSA
VL: DIKMTQSPSSMYVSLGERVTITCKASQDINRYLSWFQQKPGKSPKTLIYRANRLLDGVPSRFSGSGSGLDYSLTISSLEYEDMGNYYCLQYDEFPFTFGSGTKLEIKR
binding: binds
